Assay results taken from the supplement of paper PMC3334620.
The full ranking holds about 33,000 sequences; the median of “E-score (-0.5 to 0.5)” is about -0.016, and the highest 2% start at about 0.3. The list shows a part of the results.

The sequences below were run against T1, Yer184c (UniProt P39961) (assay: PBM E-score (8-mer binding enrichment) (E-score (-0.5 to 0.5)); higher = stronger / more preferred TF binding). Conditions: protein concentration: 100 nM; construct: GST-full length.
T1 sequence: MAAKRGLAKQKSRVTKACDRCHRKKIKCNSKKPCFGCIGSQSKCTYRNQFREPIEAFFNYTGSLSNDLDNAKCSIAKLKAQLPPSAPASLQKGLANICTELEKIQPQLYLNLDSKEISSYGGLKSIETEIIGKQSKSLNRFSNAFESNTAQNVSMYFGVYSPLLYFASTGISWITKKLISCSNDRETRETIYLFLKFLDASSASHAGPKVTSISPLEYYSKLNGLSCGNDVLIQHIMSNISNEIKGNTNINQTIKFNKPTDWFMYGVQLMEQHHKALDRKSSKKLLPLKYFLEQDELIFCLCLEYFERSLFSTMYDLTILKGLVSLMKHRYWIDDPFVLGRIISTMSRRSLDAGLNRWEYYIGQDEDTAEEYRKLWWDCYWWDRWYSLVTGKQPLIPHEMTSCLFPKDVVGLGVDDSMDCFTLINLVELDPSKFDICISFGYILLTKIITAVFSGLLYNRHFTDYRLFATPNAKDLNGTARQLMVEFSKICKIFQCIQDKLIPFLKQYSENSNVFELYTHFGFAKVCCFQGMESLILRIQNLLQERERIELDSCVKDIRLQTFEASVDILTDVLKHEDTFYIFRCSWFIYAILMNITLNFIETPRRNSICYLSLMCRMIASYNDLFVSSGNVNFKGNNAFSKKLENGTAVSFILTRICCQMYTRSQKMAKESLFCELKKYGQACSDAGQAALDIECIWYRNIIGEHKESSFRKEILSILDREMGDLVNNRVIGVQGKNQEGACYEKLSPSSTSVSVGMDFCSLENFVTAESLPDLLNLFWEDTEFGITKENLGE
Method in brief: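 For each ungapped eight-base word taken together with its reverse complement, the Universal PBM Analysis Suite assigned an E-score. Binding data came from GST-tagged yeast transcription factors, applied at about 100-200 nM, on universal all-10-mer Agilent arrays made double-stranded by primer extension. Fluorescent anti-GST marked bound protein, and scans were normalised with masliner.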

In order of rising “PBM E-score” value:
1. CCTCAGAG  -0.346
2. CAGGTCAC  -0.325
3. AAGGCTGG  -0.308
4. ACGCTAAG  -0.241
5. AGGTGTGC  -0.232
6. ATAGGGGG  -0.223
7. GTCCCAGA  -0.215
8. ACATGACC  -0.203
9. GATCTAGC  -0.195
10. CAGGCGAC  -0.191
11. AACTTGAG  -0.189
12. AGTCTGGC  -0.184
13. AGGTCTAT  -0.173
14. CTATCTGA  -0.172
15. CTCACGAC  -0.164
16. ATAGTGGC  -0.153
17. CGACCATC  -0.147
18. ATCACGAT  -0.147
19. CAACGCCA  -0.147
20. ACGACAGT  -0.126
21. CCCACCGA  -0.117
22. AGTGTGGG  -0.114
23. CTCGAGTC  -0.113
24. ACCGCAGA  -0.105
25. CATCCACA  -0.102
26. GTACGAGA  -0.1
27. CATAAGCA  -0.0964
28. CATGCTGA  -0.0909
29. GCCCTATA  -0.0877
30. CCCGTGCA  -0.0846
31. AGCAAAGG  -0.0842
32. GCCGTCGC  -0.0785
33. ACGCTTTA  -0.0723
34. CTTGACAC  -0.0608
35. GGACAGGA  -0.0567
36. ACGCAGAG  -0.0456
37. ATCGAAGG  -0.0327
38. GTAGTACA  -0.0299
39. CATACTGG  -0.0226
40. AATGCTAA  -0.0204
41. AACACCTG  -0.0186
42. AGTGGAGA  -0.0137
43. AGCCTTAG  -0.00942
44. TAATCTGA  -0.00734
45. ACGTGCGC  -0.00474
46. TCAGATCA  -0.00186
47. TAACACCA  0.00327
48. GAAACTCC  0.00864
49. GTCCCACA  0.00972
50. CGACGCTA  0.0118
51. CCCAAAAG  0.0271
52. AAGGAACG  0.032
53. ATACTGAA  0.034
54. ACATGTTA  0.0413
55. AGATCAAT  0.042
56. AGTAAGAC  0.0443
57. CGAACATC  0.0614
58. CTTTTATC  0.073
59. AGTAACTC  0.0741
60. ATGTGCTA  0.0811
61. GGCGATTA  0.0843
62. TACGCGCA  0.0925
63. TCTCGAGA  0.0945
64. ATACGAGC  0.0989
65. CTATATGC  0.1
66. TTCCCAAA  0.104
67. AACATACT  0.112
68. GATTGAAA  0.112
69. CTAGTATC  0.113
70. GGCAGATA  0.114
71. GGTGAAAC  0.127
72. GGTTAAGA  0.13
73. ATCATACG  0.134
74. AATTTGAA  0.147
75. ACATTATG  0.15
76. CCGATAAG  0.155
77. CTTGTCCC  0.161
78. ATTTCGAA  0.164
79. GCTTATAA  0.171
80. TAAAAAGA  0.189
81. AATACTCA  0.194
82. GTGTGAAA  0.198
83. CGATTTCC  0.214
84. AGCCGCCG  0.277
85. AGCCGAGG  0.336
86. ATCCGGCC  0.358
